# Laboratory results: the supplement of paper PMC8728848
# The list shows a part of the results.
# B1: pTFF2 (Sus scrofa), P01359 (protein)
# chain: KPAACRCSRQDPKNRVNCGFPGITSDQCFTSGCCFDSQVPGVPWCFKPLPAQESEECVMEVSARKNCGYPGISPEDCAARNCCFSDTIPEVPWCFFPMSVEACHY
# Legend:
# Experiment in all cases: glycan array binding signal (z-score within array); higher = stronger binding
# Settings in all cases: glycan notation: IUPAC condensed, linker removed
# [1] = target: Gal(b1-3)GlcNAc(b1-6)GalNAc
# In short: (§1)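 Glycan array data were curated from 3228 arrays in the Consortium for Functional Glycomics database and kept only where the protein sequence was available. Glycan names were converted to IUPAC-condensed notation, and columns mapping to the same glycan were averaged. The binding signal is a within-array Z-score, averaged across arrays of the same protein sequence at different concentrations or buffers and across linkers. Negative Z-scores can be read as non-binding.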
# [2] = target: Gal(b1-3)GlcNAc(b1-6)[Gal(b1-3)]GalNAc
# In short: as §1
# Gal(b1-3)GlcNAc6S = target: Gal(b1-3)GlcNAc6S
# In short: as §1
# [3] = target: Gal(b1-3)[Fuc(a1-4)]GlcNAc
# In short: as §1
# [4] = target: Gal(b1-3)[Fuc(a1-4)]GlcNAc(b1-2)Man
# In short: as §1
# [5] = target: Gal(b1-3)[Fuc(a1-4)]GlcNAc(b1-2)Man(a1-3)[Gal(b1-3)[Fuc(a1-4)]GlcNAc(b1-2)Man(a1-6)]Man(b1-4)GlcNAc(b1-4)[Fuc(a1-6)]GlcNAc
# In short: as §1
# [6] = target: Gal(b1-3)[Fuc(a1-4)]GlcNAc(b1-3)Gal(b1-3)[Fuc(a1-4)]GlcNAc
# In short: as §1
# [7] = target: Gal(b1-3)[Fuc(a1-4)]GlcNAc(b1-3)Gal(b1-4)[Fuc(a1-3)]GlcNAc
# In short: as §1
# [8] = target: Gal(b1-3)[Fuc(a1-4)]GlcNAc(b1-6)GalNAc
# In short: as §1
# [9] = target: Gal(b1-3)[GlcNAc(b1-6)]GalNAc
# In short: as §1
# [10] = target: Gal(b1-3)[Neu5Ac(a2-6)]GalNAc
# In short: as §1
# [11] = target: Gal(b1-3)[Neu5Ac(a2-6)]GlcNAc(b1-4)Gal(b1-4)Glc
# In short: as §1
# [12] = target: Gal(b1-3)[Neu5Ac(b2-6)]GalNAc
# In short: as §1
# Gal(b1-4)Gal = target: Gal(b1-4)Gal
# In short: as §1
# [13] = target: Gal(b1-4)GalNAc(a1-3)[Fuc(a1-2)]Gal(b1-4)GlcNAc
# In short: as §1
# [14] = target: Gal(b1-4)GalNAc(b1-3)[Fuc(a1-2)]Gal(b1-4)GlcNAc
# In short: as §1
# Gal(b1-4)Glc = target: Gal(b1-4)Glc
# In short: as §1
# Gal(b1-4)Glc6S = target: Gal(b1-4)Glc6S
# In short: as §1
# Gal(b1-4)GlcNAc = target: Gal(b1-4)GlcNAc
# In short: as §1
# [15] = target: Gal(b1-4)GlcNAc(a1-6)Gal(b1-4)GlcNAc
# In short: as §1
# Gal(b1-4)GlcNAc(b1-2)Man = target: Gal(b1-4)GlcNAc(b1-2)Man
# In short: as §1
# [16] = target: Gal(b1-4)GlcNAc(b1-2)Man(a1-3)Man(b1-4)GlcNAc(b1-4)GlcNAc
# In short: as §1
binder,measurement,setting,value
B1,glycan array binding signal (z-score),[1],-0.598
same,glycan array binding signal (z-score),[2],0.066
same,glycan array binding signal (z-score),Gal(b1-3)GlcNAc6S,-0.886
same,glycan array binding signal (z-score),[3],0.273
same,glycan array binding signal (z-score),[4],-0.709
same,glycan array binding signal (z-score),[5],-0.85
same,glycan array binding signal (z-score),[6],0.775
same,glycan array binding signal (z-score),[7],-0.511
same,glycan array binding signal (z-score),[8],-0.796
same,glycan array binding signal (z-score),[9],0.621
same,glycan array binding signal (z-score),[10],-0.388
same,glycan array binding signal (z-score),[11],-0.172
same,glycan array binding signal (z-score),[12],-0.703
same,glycan array binding signal (z-score),Gal(b1-4)Gal,-2.31
same,glycan array binding signal (z-score),[13],0.721
same,glycan array binding signal (z-score),[14],1.44
same,glycan array binding signal (z-score),Gal(b1-4)Glc,0.777
same,glycan array binding signal (z-score),Gal(b1-4)Glc6S,0.896
same,glycan array binding signal (z-score),Gal(b1-4)GlcNAc,-0.819
same,glycan array binding signal (z-score),[15],-2.1
same,glycan array binding signal (z-score),Gal(b1-4)GlcNAc(b1-2)Man,-2.22
same,glycan array binding signal (z-score),[16],0.982

# Fetched one by one from above, 2 records:
binder,measurement,setting,value
B1,glycan array binding signal (z-score),[5],-0.85
same,glycan array binding signal (z-score),[1],-0.598
